# Results are given in words; binding and its absence hold for the method and conditions named. In cells and extracts the contact can be indirect. Where a sequence is shown, tags or fusion partners need not be part of it.
# Molecular target: T1, ENG-HA (endoglin, HA-tagged, ectopically expressed) (UniProt P17813)
# T1 sequence: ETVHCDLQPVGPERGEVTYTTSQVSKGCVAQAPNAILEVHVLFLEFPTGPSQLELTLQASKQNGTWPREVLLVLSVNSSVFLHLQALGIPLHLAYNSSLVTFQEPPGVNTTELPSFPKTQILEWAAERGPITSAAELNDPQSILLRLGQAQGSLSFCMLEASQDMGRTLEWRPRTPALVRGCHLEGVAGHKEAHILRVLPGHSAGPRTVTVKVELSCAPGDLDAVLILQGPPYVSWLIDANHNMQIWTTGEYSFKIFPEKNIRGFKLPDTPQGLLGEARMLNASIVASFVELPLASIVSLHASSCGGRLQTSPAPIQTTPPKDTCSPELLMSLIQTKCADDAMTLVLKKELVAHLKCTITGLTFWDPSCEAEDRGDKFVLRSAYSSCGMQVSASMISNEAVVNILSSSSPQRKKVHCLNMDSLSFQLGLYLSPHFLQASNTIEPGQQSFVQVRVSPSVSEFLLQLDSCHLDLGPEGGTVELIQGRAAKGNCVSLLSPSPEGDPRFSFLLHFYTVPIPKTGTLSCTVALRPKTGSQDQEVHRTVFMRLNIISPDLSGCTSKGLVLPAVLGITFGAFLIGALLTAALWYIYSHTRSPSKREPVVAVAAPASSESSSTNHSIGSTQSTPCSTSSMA
# Test: proximity ligation; Duolink in situ PLA; HEK293T cells overexpressing ENG-HA incubated with recombinant proteins for 1 h at 37 °C, fixed; goat anti-ENG with rabbit anti-6X His, anti-VEGFA or anti-TGF-β3; only the binder purified
substance,measurement,value
recombinant human VEGF protein (ligand),binding,no binding

# Reference: PMC11910139
